Measured values taken from article PMC3197150.
No constants are given. Whether binding was seen depends on the method and setting. In cells and extracts the contact can be indirect. These calls come from enrichment with a bait or labelling near it, and not all partners need be listed.

Protein sequences, listed by entry. Tags and fused reporters are not part of them.
UniProt P38873: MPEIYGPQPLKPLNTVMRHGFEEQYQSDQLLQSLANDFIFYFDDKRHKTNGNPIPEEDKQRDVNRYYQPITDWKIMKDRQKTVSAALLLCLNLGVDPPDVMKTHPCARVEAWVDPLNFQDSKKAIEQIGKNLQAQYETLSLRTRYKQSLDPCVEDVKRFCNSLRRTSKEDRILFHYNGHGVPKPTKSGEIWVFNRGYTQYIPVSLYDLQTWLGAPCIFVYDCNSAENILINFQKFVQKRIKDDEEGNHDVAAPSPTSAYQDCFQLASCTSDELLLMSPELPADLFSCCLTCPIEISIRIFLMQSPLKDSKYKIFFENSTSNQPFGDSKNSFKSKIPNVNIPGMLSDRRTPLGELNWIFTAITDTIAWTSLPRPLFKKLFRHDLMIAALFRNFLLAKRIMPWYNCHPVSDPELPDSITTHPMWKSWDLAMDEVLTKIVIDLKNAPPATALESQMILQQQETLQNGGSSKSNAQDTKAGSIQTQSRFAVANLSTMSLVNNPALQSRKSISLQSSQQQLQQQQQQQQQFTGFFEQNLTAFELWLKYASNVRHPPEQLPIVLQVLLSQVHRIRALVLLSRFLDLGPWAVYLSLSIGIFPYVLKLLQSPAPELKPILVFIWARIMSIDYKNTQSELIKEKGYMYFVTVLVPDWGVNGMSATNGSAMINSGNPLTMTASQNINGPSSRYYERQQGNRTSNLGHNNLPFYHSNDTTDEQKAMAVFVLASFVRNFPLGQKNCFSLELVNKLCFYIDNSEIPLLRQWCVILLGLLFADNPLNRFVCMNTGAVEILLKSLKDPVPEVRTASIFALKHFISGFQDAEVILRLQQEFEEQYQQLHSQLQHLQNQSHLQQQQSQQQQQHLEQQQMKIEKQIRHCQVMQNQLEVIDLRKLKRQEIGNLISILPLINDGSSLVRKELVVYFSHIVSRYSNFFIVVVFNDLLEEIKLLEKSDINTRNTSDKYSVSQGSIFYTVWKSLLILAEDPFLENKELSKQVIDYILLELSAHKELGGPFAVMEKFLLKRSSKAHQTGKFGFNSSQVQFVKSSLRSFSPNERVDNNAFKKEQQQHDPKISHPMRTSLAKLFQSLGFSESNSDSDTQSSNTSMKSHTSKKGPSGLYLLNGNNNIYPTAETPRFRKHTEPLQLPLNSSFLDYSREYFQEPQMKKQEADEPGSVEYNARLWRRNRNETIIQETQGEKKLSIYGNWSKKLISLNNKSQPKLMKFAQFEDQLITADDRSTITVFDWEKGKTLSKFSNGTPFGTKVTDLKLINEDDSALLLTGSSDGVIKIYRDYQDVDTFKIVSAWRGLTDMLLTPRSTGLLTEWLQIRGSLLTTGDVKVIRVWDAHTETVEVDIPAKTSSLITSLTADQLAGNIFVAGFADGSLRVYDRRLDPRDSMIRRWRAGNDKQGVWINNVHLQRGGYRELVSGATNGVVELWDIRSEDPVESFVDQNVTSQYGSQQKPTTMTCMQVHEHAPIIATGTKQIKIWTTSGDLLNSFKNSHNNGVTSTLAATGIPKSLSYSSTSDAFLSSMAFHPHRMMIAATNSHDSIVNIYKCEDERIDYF
UniProt P35169: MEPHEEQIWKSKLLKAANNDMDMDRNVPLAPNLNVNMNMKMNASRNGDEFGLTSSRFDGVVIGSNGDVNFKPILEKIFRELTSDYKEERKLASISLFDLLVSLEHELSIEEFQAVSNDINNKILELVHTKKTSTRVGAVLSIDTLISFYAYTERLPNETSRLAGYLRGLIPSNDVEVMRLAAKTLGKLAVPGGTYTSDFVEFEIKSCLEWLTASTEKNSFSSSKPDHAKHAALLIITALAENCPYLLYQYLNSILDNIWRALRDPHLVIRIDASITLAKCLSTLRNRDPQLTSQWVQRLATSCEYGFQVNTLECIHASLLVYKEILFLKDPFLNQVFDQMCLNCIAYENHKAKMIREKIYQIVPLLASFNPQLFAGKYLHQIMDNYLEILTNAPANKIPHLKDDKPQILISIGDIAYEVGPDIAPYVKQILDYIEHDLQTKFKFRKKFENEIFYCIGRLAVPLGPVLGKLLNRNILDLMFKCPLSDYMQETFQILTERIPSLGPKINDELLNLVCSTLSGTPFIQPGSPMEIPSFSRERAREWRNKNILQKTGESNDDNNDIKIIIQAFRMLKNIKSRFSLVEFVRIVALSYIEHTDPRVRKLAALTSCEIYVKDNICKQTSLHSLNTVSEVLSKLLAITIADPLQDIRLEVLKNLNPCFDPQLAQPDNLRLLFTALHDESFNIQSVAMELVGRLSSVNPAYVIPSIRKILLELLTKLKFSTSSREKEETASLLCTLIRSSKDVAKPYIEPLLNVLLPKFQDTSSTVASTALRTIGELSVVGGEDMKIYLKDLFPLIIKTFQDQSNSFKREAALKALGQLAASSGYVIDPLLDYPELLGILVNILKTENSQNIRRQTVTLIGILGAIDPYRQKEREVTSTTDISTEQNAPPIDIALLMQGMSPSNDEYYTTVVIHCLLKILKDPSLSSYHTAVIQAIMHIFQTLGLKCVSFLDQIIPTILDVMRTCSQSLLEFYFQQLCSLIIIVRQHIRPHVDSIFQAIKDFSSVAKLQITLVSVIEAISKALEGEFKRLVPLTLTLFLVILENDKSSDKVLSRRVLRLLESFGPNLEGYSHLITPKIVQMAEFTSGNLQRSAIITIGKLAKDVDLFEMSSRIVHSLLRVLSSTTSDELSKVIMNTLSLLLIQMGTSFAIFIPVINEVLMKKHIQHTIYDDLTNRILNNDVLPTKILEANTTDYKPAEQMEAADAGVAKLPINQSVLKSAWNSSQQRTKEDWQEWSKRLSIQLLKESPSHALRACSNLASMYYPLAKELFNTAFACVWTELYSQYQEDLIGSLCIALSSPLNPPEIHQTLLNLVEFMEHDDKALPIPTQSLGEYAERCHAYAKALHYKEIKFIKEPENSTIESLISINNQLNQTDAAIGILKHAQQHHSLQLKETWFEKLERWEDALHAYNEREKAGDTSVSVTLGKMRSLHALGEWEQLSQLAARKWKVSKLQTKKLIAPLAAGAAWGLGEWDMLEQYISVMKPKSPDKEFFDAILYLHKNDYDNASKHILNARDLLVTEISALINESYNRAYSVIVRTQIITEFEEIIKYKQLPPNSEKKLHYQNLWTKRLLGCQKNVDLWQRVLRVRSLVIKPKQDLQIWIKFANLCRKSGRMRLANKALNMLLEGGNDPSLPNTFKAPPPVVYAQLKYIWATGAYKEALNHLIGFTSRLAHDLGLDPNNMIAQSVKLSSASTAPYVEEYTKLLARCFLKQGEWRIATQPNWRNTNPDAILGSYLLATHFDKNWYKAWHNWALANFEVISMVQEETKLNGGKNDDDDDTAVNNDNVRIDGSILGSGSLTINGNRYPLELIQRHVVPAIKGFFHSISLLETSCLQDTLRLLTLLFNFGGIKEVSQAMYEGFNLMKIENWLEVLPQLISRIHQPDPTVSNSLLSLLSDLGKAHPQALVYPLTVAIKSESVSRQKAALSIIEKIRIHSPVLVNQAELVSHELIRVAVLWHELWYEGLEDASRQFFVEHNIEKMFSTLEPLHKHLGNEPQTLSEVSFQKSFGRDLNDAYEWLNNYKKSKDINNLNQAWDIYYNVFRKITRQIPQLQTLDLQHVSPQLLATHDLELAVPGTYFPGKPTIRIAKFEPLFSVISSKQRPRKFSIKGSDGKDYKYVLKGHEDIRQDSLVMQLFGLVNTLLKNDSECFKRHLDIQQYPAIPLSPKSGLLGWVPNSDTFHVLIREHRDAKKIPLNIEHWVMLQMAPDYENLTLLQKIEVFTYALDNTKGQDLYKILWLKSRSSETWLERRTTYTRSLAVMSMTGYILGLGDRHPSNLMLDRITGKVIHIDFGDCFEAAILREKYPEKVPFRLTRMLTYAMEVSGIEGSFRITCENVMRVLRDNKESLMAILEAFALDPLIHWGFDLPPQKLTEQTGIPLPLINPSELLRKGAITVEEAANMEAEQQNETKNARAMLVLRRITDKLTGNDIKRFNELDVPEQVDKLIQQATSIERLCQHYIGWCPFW
UniProt P02994: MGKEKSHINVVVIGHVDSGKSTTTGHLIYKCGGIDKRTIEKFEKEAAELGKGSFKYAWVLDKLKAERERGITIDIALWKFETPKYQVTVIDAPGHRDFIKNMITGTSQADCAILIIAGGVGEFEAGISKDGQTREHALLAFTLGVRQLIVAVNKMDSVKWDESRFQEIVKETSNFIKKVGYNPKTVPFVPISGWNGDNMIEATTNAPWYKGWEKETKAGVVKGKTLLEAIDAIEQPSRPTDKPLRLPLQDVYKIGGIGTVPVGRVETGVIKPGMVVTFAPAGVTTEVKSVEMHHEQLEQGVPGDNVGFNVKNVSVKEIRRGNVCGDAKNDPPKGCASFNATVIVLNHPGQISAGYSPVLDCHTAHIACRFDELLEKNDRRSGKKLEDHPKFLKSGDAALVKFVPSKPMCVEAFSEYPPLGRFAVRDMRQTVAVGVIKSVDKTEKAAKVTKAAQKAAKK

B1: Pil1p (protein, UniProt P53252 1-339)
chain: MHRTYSLRNSRAPTASQLQNPPPPPSTTKGRFFGKGGLAYSFRRSAAGAFGPELSRKLSQLVKIEKNVLRSMELTANERRDAAKQLSIWGLENDDDVSDITDKLGVLIYEVSELDDQFIDRYDQYRLTLKSIRDIEGSVQPSRDRKDKITDKIAYLKYKDPQSPKIEVLEQELVRAEAESLVAEAQLSNITRSKLRAAFNYQFDSIIEHSEKIALIAGYGKALLELLDDSPVTPGETRPAYDGYEASKQIIIDAESALNEWTLDSAQVKPTLSFKQDYEDFEPEEGEEEEEEDGQGRWSEDEQEDGQIEEPEQEEEGAVEEHEQVGHQQSESLPQQTTA
B2: Mks1p (protein, UniProt P34072 1-584)
chain: MSREAFDVPNIGTNKFLKVTPNLFTPERLNLFDDVELYLTLIKASKCVEQGERLHNISWRILNKAVLKEHNINRSKKRDGVKNIYYVLNPNNKQPIKPKQAAVKQPPLQKANLPPTTAKQNVLTRPMTSPAIAQGAHDRSLDNPNSTNNDVKNDVAPNRQFSKSTTSGLFSNFADKYQKMKNVNHVANKEEPQTIITGFDTSTVITKKPLQSRRSRSPFQHIGDMNMNCIDNETSKSTSPTLENMGSRKSSFPQKESLFGRPRSYKNDQNGQLSLSKTSSRKGKNKIFFSSEDEDSDWDSVSNDSEFYADEDDEEYDDYNEEEADQYYRRQWDKLLFAKNQQNLDSTKSSVSSANTINSNTSHDPVRKSLLSGLFLSEANSNSNNHNTAHSEYASKHVSPTPQSSHSNIGPQPQQNPPSANGIKQQKPSLKTSNVTALASLSPPQPSNNERLSMDIQKDFKTDNESNHLYESNAPLTAQTILPTALSTHMFLPNNIHQQRMAIATGSNTRHRFSRRQSMDIPSKNRNTGFLKTRMEISEEEKMVRTISRLDNTSIANSNGNGNDDTSNQRTEALGRKTSNGGRI
B3: Ksp1p (protein, UniProt P38691 1-1029)
chain: MTLDYEIYKEGGILNNRYQKIEDISEGSYGYVSLAKDVREKRLVAVKYIFKLEDDGQYDGPQDDENDCDSSDCDDDEDTKVDTDRHENENGNASSNNGSSREKKHNLYKHKKSLISSKVKSRLSNNICLEAMYEVDIQTKIGRHQNIAALLDFFDSYIIMEYCSGGDLYEAIKADAVPKKTKSITHIITQIMDAIEYVHNKGIYHRDIKPENILISGIDWTIKLTDWGLATTDKTSMDRNVGSERYMSPELFDSNLDIKERKEPYDCAKVDLWAMGIVFLNIVFHKNPFSIANQSDKSFCYFAANREALFDVFSTMAYDFFQVLRYSLTIDPANRDLKMMRTELQNLSEYTLDDEYYNNLDEGYEETMIDGLPPQPVPPSSAPVSLPTPISSSNKQHMPEFKKDFNFNNVNERKRSDVSQNQNVASGFFKKPSTQQQKFFNQGYNTTLSTHERAKSAPKFKFKKRNKYGRTDNQFSKPVNIEDRKKSKILKKSRKPLGIPTPNTHMNNFFHDYKARDEFNTRDFFTPPSVQHRYMEGFSNNNNKQYRQNRNYNNNNNNSNNNHGSNYNNFNNGNSYIKGWNKNFNKYRRPSSSSYTGKSPLSRYNMSYNHNNNSSINGYARRGSTTTVQHSPGAYIPPNARNHHVSPTNQFLRVPQSTAPDISTVLGGKPSYQEHYTQDSMDSEGDHDSDDVLFTLEEGDHDFVNGMDNLSINDHLPHTTVGSHNEVFVHASTNHNNNGNNNHIDTNSTTNQYHRQYIPPPLTTSLHINNNNNESNELPDLLKSPASSEAHLNLSSGPIDPILTGNIGNRYSHSSDSKELEQERRLSMEQKFKNGVYVPPHHRKSFNLGTQVPPMNMKTSNEATLSVSHNSVNFGGSYNSRRSSANESNPLHMNKALEKLSSSPGAKSSFVGFPKPLLPRNHSSTTIALQNEDVFADSNNDAIIFEDEEYEGESDKMAHGKMEGGDNESSSTSPDERQIFGPYEIYAQTFAGSTHDKKLGAGRKTSIQDEMVGSLEQYKNNWLILQQQD
B4: Uba4p (protein, UniProt P38820 1-440)
chain: MNDYHLEDTTSELEALRLENAQLREQLAKREDSSRDYPLSLEEYQRYGRQMIVEETGGVAGQVKLKNTKVLVVGAGGLGCPALPYLAGAGVGQIGIVDNDVVETSNLHRQVLHDSSRVGMLKCESARQYITKLNPHINVVTYPVRLNSSNAFDIFKGYNYILDCTDSPLTRYLVSDVAVNLGITVVSASGLGTEGQLTILNFNNIGPCYRCFYPTPPPPNAVTSCQEGGVIGPCIGLVGTMMAVETLKLILGIYTNENFSPFLMLYSGFPQQSLRTFKMRGRQEKCLCCGKNRTITKEAIEKGEINYELFCGARNYNVCEPDERISVDAFQRIYKDDEFLAKHIFLDVRPSHHYEISHFPEAVNIPIKNLRDMNGDLKKLQEKLPSVEKDSNIVILCRYGNDSQLATRLLKDKFGFSNVRDVRGGYFKYIDDIDQTIPKY
B5: Tif2p (protein, UniProt P10081 1-395)
chain: MSEGITDIEESQIQTNYDKVVYKFDDMELDENLLRGVFGYGFEEPSAIQQRAIMPIIEGHDVLAQAQSGTGKTGTFSIAALQRIDTSVKAPQALMLAPTRELALQIQKVVMALAFHMDIKVHACIGGTSFVEDAEGLRDAQIVVGTPGRVFDNIQRRRFRTDKIKMFILDEADEMLSSGFKEQIYQIFTLLPPTTQVVLLSATMPNDVLEVTTKFMRNPVRILVKKDELTLEGIKQFYVNVEEEEYKYECLTDLYDSISVTQAVIFCNTRRKVEELTTKLRNDKFTVSAIYSDLPQQERDTIMKEFRSGSSRILISTDLLARGIDVQQVSLVINYDLPANKENYIHRIGRGGRFGRKGVAINFVTNEDVGAMRELEKFYSTQIEELPSDIATLLN
B6: Kap123p (protein, UniProt P40069 1-1113)
chain: MDQQFLSQLEQTLHAITSGVGLKEATKTLQTQFYTQPTTLPALIHILQNGSDDSLKQLAGVEARKLVSKHWNAIDESTRASIKTSLLQTAFSEPKENVRHSNARVIASIGTEELDGNKWPDLVPNLIQTASGEDVQTRQTAIFILFSLLEDFTSSLSGHIDDFLALFSQTINDPSSLEIRSLSAQALNHVSALIEEQETINPVQAQKFAASIPSVVNVLDAVIKADDTMNAKLIFNCLNDFLLLDSQLTGNFIVDLIKLSLQIAVNSEIDEDVRVFALQFIISSLSYRKSKVSQSKLGPEITVAALKVACEEIDVDDELNNEDETGENEENTPSSSAIRLLAFASSELPPSQVASVIVEHIPAMLQSANVFERRAILLAISVAVTGSPDYILSQFDKIIPATINGLKDTEPIVKLAALKCIHQLTTDLQDEVAKFHEEYLPLIIDIIDSAKNIVIYNYATVALDGLLEFIAYDAIAKYLDPLMNKLFYMLESNESSKLRCAVVSAIGSAAFAAGSAFIPYFKTSVHYLEKFIQNCSQIEGMSEDDIELRANTFENISTMARAVRSDAFAEFAEPLVNSAYEAIKTDSARLRESGYAFIANLAKVYGENFAPFLKTILPEIFKTLELDEYQFNFDGDAEDLAAFADSANEEELQNKFTVNTGISYEKEVASAALSELALGTKEHFLPYVEQSLKVLNEQVDESYGLRETALNTIWNVVKSVLLASKVEPESYPKGIPASSYVNADVLAVIQAARETSMGNLSDEFETSMVITVMEDFANMIKQFGAIIIMDNGDSSMLEALCMQVLSVLKGTHTCQTIDIEEDVPRDEELDASETEATLQDVALEVLVSLSQALAGDFAKVFDNFRPVVFGLFQSKSKNKRSSAVGAASELALGMKEQNPFVHEMLEALVIRLTSDKSLEVRGNAAYGVGLLCEYASMDISAVYEPVLKALYELLSAADQKALAAEDDEATREIIDRAYANASGCVARMALKNSALVPLEQTVPALLAHLPLNTGFEEYNPIFELIMKLYQENSPVITNETPRIIEIFSAVFTKENDRIKLEKESTLGREENMERLKQFQTEEMKHKVIELLKYLNTTYNGIVAQNPVLAAVIA
B7: Hef3p (protein, UniProt P53978 1-1044)
chain: MSDSQQSITVLEELFRKLETATSETREGISSELSSFLNGNIIEHDVPEVFFDEFQKAIQSKQKALNTLGAVAYIANETNLSPSVEPYIVATVPSVCSKAGSKDNDVQLAATKALKAIASAVNPVAVKALLPHLIHSLETSNKWKEKVAVLEVISVLVDAAKEQIALRMPELIPVLSESMWDTKKGVKEAATTTITKATETVDNKDIERFIPKLIECIANPNEVPETVHLLGATTFVAEVTPATLSIMVPLLSRGLAERETSIKRKAAVIIDNMCKLVEDPQVVAPFLGKLLPGLKNNFATIADPEAREVTLKALKTLRRVGNVGEDDVLPEISHAGDVSTTLGVIKELLEPEKVAPRFTIVVEYIAAIAANLIDERIIDQQTWFTHVTPYMTIFLHEKTAKEILDDFRKRAVDNIPVGPNFQDEEDEGEDLCNCEFSLAYGAKILLNKTQLRLKRGRRYGLCGPNGAGKSTLMRSIANGQVDGFPTQDECRTVYVEHDIDNTHSDMSVLDFVYSGNVGTKDVITSKLKEFGFSDEMIEMPIASLSGGWKMKLALARAVLKDADILLLDEPTNHLDTVNVEWLVNYLNTCGITSVIVSHDSGFLDKVCQYIIHYEGLKLRKYKGNLSEFVQKCPTAQSYYELGASDLEFQFPTPGYLEGVKTKQKAIVKVSNMTFQYPGTTKPQVSDVTFQCSLSSRIAVIGPNGAGKSTLINVLTGELLPTSGEVYTHENCRIAYIKQHAFAHIESHLDKTPSEYIQWRFQTGEDRETMDRANRQINENDAEAMNKIFKIEGTPRRVAGIHSRRKFKNTYEYECSFLLGENIGMKSERWVPMMSVDNAWLPRGELIESHSKMVAEIDMKEALASGQFRALTRKEIELHCAMLGLDSELVSHSRIRGLSGGQKVKLVLAACTWQRPHLIVLDEPTNYLDRDSLGALSKALKAFEGGVIIITHSAEFTKNLTDEVWAVKDGKMTPSGHNWVAGQGAGPRIEKKEEEGDKFDAMGNKINSGKKKSKLSSAELRKKKKERMKKKKEMGDEYVSSDEDF
B8: Tma23p (protein, UniProt Q03525 1-211)
chain: MDSKEYLISYGWKEGEAFREGGLKRPILVKHKRDKKGLGNAPGGNDGEAWWERLFDGHLKNLDVSTDSNNGSIKFTQNEAVATAVSKSSSPLYRWFVKGEGLKGTITNLGKKEEASFVVSSASSSKGKKRRRRDEDDNKVKRKKLKKDKKTSNDSESKKKKKKKSKKESKKGKKSKHSSDEGDKSKHKKSKKSKKHKKEESSARRDRKEHI
B9: Caf1p (protein, UniProt P39008 1-433)
chain: MQSMNVQPRVLAVGGEQFFSQRQASEQHQQQNMGPQVYSPKVNRARMFPQGMPVNTINGSVNQEMNNAYLLKQKNEPLLTQQQQQQQQQQQPFNIGTPVSVASLPPGLNVLQQQQQQQQQQQQQQQGVGLNRPLASQLPKHLTNQSMPPIFLPPPNYLFVRDVWKSNLYSEFAVIRQLVSQYNHVSISTEFVGTLARPIGTFRSKVDYHYQTMRANVDFLNPIQLGLSLSDANGNKPDNGPSTWQFNFEFDPKKEIMSTESLELLRKSGINFEKHENLGIDVFEFSQLLMDSGLMMDDSVTWITYHAAYDLGFLINILMNDSMPNNKEDFEWWVHQYMPNFYDLNLVYKIIQEFKNPQLQQSSQQQQQQQYSLTTLADELGLPRFSIFTTTGGQSLLMLLSFCQLSKLSMHKFPNGTDFAKYQGVIYGIDGDQ

Target: Kog1p, C-terminally FLAG-tagged (KOG1-FLAG) (S. cerevisiae) (UniProt P38873)
Assay: affinity purification with mass spectrometry; KOG1-flag captured from yeast lysate (batch glucose or glucose-limited chemostat cultures) on flag antibody conjugated to magnetic protein G beads, not more than 45 min at 4°C; lysis buffer 50 mM HEPES pH 7.5, 150 mM KCl, 0.5% Tween 20; 5 short washes with added 200 mM NaCl; bands cut from SDS gels, nano HPLC/MS/MS

binding, binds:
Tor1p (from UniProt P35169 1-2470)
Tef2p (from UniProt P02994 1-458)
B1
B2
B3
B4
B5
B6
B7
B8
B9
